Some of the results follow. Small differences around the control level are noise.

The assay concerns the target T1, UniProt P76038.
T1 sequence (whole entry): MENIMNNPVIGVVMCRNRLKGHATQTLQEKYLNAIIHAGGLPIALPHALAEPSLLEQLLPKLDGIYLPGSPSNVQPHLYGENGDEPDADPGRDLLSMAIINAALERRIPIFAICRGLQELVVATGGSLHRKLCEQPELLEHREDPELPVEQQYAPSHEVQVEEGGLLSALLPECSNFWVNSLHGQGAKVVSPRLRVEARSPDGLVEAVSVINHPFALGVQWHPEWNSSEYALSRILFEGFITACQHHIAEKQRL
The assay is described as follows: log2 fold change of tryptic peptide abundance, ligand vs vehicle (limited proteolysis) (log2 ratio); higher = more trypsin-susceptible (destabilized). The settings on record: peptide sequence: ILFEGFITACQHHIAEK; peptide start residue: 235; ligand concentration: 10 uM; sample: E. coli crude lysate.

As for `CC1(C)S[C@@H]2[C@H](NC(=O)[C@H](N)c3ccccc3)C(=O)N2[C@H]1C(=O)O` [ampicillin], the log2 fold change came out at 1.27.

Source of the values: the supplement of paper PMC12819154, “High-throughput peptide-centric local stability assay extends protein–ligand identification to membrane proteins, tissues and bacteria” (Nature Structural & Molecular Biology, 2025).
